In PMC10604565 (Antibiotics, 2023):

Assay: general procedure: Fmoc solid-phase peptide synthesis; Fmoc-Wang resin, preloaded, 0.4–0.8 mmol/g; Oxyma pure/DIC (double coupling, 8 eq.); HATU/DIPEA for Fmoc-Asp(OtBu)-(Dmb)Gly-
Settings: whole synthesis, analytical LC-MS

HTSRLKARKHSKRRVRDKDGDLKTQIEKLWTEVNALKEIQALQTVCL
final LC-MS purity: 91%

Where a sequence shows no end group, the ends are not given.
